Data published in article doi:10.1101/2020.05.18.103002 (bioRxiv, 2020).
Results are given in words; binding and its absence hold for the method and conditions named. Binding seen in cells or lysates may run through a third protein. Some entries that bind do so weakly or less than the wild type. For some assays here: Tags and fused reporters may be left off the sequences shown.

Sequences of proteins named here, by UniProt entry; tags and fusion partners are left off.
UniProt P40073: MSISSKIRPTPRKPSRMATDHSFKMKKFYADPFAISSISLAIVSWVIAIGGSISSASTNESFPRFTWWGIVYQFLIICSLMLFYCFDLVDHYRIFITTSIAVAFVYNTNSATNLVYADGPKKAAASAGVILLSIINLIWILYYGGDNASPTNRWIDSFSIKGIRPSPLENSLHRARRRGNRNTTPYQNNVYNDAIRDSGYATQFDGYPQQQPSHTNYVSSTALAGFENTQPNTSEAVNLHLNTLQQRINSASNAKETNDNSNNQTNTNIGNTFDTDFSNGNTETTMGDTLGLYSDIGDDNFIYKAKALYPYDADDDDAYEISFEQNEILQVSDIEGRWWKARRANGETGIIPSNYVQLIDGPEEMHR

What was measured:
[1] = biological target: T1, Nbp2-DHFR F[1,2]-FLAG (WT bait) (S. cerevisiae) (UniProt Q12163); assay: split reporter
T1 sequence: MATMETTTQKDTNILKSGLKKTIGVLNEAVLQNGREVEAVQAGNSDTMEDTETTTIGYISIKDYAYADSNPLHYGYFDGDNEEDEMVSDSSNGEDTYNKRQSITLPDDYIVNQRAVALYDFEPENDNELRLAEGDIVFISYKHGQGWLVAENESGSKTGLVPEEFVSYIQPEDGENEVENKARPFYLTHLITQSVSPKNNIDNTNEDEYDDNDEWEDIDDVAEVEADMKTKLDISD

[2] = biological target: Sho1-DHFR F[1,2]-FLAG (WT bait) (S. cerevisiae) (UniProt P40073); assay: split reporter

B1: Pbs2-DHFR F[3] (protein, UniProt P08018 1-668)
chain: MEDKFANLSLHEKTGKSSIQLNEQTGSDNGSAVKRTSSTSSHYNNINADLHARVKAFQEQRALKRSASVGSNQSEQDKGSSQSPKHIQQIVNKPLPPLPVAGSSKVSQRMSSQVVQASSKSTLKNVLDNQETQNITDVNINIDTTKITATTIGVNTGLPATDITPSVSNTASATHKAQLLNPNRRAPRRPLSTQHPTRPNVAPHKAPAIINTPKQSLSARRGLKLPPGGMSLKMPTKTAQQPQQFAPSPSNKKHIETLSNSKVVEGKRSNPGSLINGVQSTSTSSSTEGPHDTVGTTPRTGNSNNSSNSGSSGGGGLFANFSKYVDIKSGSLNFAGKLSLSSKGIDFSNGSSSRITLDELEFLDELGHGNYGNVSKVLHKPTNVIMATKEVRLELDEAKFRQILMELEVLHKCNSPYIVDFYGAFFIEGAVYMCMEYMDGGSLDKIYDESSEIGGIDEPQLAFIANAVIHGLKELKEQHNIIHRDVKPTNILCSANQGTVKLCDFGVSGNLVASLAKTNIGCQSYMAPERIKSLNPDRATYTVQSDIWSLGLSILEMALGRYPYPPETYDNIFSQLSAIVDGPPPRLPSDKFSSDAQDFVSLCLQKIPERRPTYAALTEHPWLVKYRNQDVHMSEYITERLERRNKILRERGENGLSKNVPALHMGGL
binding [1]: binds
binding [2]: binds
